Data on one molecule can be found in publication PMC10205598.

This experiment deals with MYCFAM172A (MYC-tagged version of the 371aa-long isoform of murine FAM172A, WT) (mouse). Kind of experiment: co-IP; N2a cells transfected with MYCFAM172A (WT or NLS-mutated; with HAFAM172A for self-association), MYC as bait; endogenous importins or HAFAM172A blotted; 100 mM NaCl lysis buffer, with or without 10 min crosslink with 0.75% formaldehyde before lysis; excess MYC peptide as specificity control.

No constants are given. Whether binding was seen depends on the method and setting. In cells and extracts the contact can be indirect. A result given as binding can be weak or reduced; the word gives no strength.

B1: endogenous importin-5 (protein, UniProt Q8BKC5 1-1097)
chain: MAAAAAEQQQFYLLLGNLLSPDNVVRKQAEETYENIPGRSKITFLLQAIRNTTAAEEARQMAAVLLRRLLSSAFDEVYPALPSDVQTAIKSELLMIIQMETQSSMRKKICDIAAELARNLIDEDGNNQWPEGLKFLFDSVSSQNMGLREAALHIFWNFPGIFGNQQQHYLDVIKRMLVQCMQDQEHPSIRTLSARATAAFILANEHNVALFKHFADLLPGFLQAVNDSCYQNDDSVLKSLVEIADTVPKYLRPHLEATLQLSLKLCGDTNLNNMQRQLALEVIVTLSETAAAMLRKHTSLIAQTIPQMLAMMVDLEEDEDWANADELEDDDFDSNAVAGESALDRMACGLGGKLVLPMIKEHIMQMLQNPDWKYRHAGLMALSAIGEGCHQQMEGILNEIVNFVLLFLQDPHPRVRYAACNAVGQMATDFAPGFQKKFHEKVIAALLQTMEDQGNQRVQAHAAAALINFTEDCPKSLLIPYLDNLVKHLHSIMVLKLQELIQKGTKLVLEQVVTSIASVADTAEEKFVPYYDLFMPSLKHIVENAVQKELRLLRGKTIECISLIGLAVGKEKFMQDASDVMQLLLKTQTDFNDMEDDDPQISYMISAWARMCKILGKEFQQYLPVVMGPLMKTASIKPEVALLDTQDMENMSDDDGWEFVNLGDQQSFGIKTAGLEEKSTACQMLVCYAKELKEGFVEYTEQVVKLMVPLLKFYFHDGVRVAAAESMPLLLECARVRGPEYLTQMWHFMCDALIKAIGTEPDSDVLSEIMHSFAKCIEVMGDGCLNNEHFEELGGILKAKLEEHFKNQELRQVKRQDEDYDEQVEESLQDEDDNDVYILTKVSDILHSIFSSYKEKVLPWFEQLLPLIVNLICPQRPWPDRQWGLCIFDDIVEHCSPASFKYAEYFISPMLQYVCDNSPEVRQAAAYGLGVMAQFGGDNYRPFCTDALPLLVRVIQAPEAKTKENVNATENCISAVGKIMKFKPDCVNVEEVLPHWLSWLPLHEDKEEAVQTFSYLCDLIESNHPIVLGPNNTNLPKIFSIIAEGEMHEAIKHEDPCAKRLANVVRQVQTSGGLWTECIAQLSPEQQAAIQELLNSA
In the case of B1, the binding entry is recorded as “binds”.
